According to paper PMC3655167:
Results are given in words; binding and its absence hold for the method and conditions named. Binding seen in cells or lysates may run through a third protein. Some entries that bind do so weakly or less than the wild type. Where a sequence is shown, tags or fusion partners need not be part of it.

Molecular target: T1, BRP44 with a C-terminal 6×His-tag (UniProt Q9D023)
T1 sequence (chain, crosslinked with the 125I-labelled photoprobe MSDC-1101 (residue not stated)): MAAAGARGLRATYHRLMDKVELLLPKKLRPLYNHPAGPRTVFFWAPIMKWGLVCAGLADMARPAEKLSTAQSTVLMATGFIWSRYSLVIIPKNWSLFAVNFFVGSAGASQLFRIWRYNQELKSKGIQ
Assay: co-IP; solubilized, MSDC-1101-crosslinked mitochondria from HEK293 cells stably expressing BRP44-6×His; immunoprecipitated with anti-His agarose beads; partners shown by Western blots and mass spectrometry (not shown)

B1: BRP44-Like (protein, UniProt Q9Y5U8 1-109)
chain: MAGALVRKAADYVRSKDFRDYLMSTHFWGPVANWGLPIAAINDMKKSPEIISGRMTFALCCYSLTFMRFAYKVQPRNWLLFACHATNEVAQLIQGGRLIKHEMTKTASA
binding: binds
